These are literature values, as cited in US20100197018A1, “USE OF SUBSTRATES AS PHARMACOLOGICAL CHAPERONES” (AMICUS THERAPEUTICS, INC., priority 2007, published 2010).

Protein sequences, listed by entry. Tags and fused reporters are not part of them. Residues count along the entry.
UniProt P51688, 21-502 limits assumed: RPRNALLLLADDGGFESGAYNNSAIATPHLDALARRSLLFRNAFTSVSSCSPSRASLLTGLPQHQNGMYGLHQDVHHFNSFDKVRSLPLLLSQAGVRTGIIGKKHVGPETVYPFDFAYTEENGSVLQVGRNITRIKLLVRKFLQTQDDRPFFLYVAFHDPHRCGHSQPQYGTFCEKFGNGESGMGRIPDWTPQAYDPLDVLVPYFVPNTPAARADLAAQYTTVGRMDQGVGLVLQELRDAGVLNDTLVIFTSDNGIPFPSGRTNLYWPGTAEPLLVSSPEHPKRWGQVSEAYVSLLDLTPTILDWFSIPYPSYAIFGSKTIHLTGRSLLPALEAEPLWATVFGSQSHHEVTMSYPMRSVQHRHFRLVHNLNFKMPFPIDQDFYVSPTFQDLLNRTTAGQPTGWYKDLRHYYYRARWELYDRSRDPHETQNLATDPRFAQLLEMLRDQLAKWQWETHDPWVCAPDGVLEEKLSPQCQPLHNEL

Some entries of the source have several records that differ or are many. Only these are listed. An entry can have further records. The records of an entry differ for a reason that is not stated; dose, time, organism, isomer or construct need not be as stated for each record.

The target of the series is heparan-N-sulfatase (Homo sapiens, UniProt P51688). The following applies: purified enzyme.

With `O=C(O)[C@H](O)[C@@H](O[C@H]1O[C@H](COS(=O)(=O)O)[C@@H](O)[C@H](O)[C@H]1NS(=O)(=O)O)[C@H](O)[C@@H](O)CO` [GlcNS6S-IdOA, O-(α-2-sulphaminoglucosamine 6 sulphate)-(1-3)-L-idonic acid], the “pH optimum of the enzyme for the substrate” value is “acidic optimum pHs and 4.2”.
